Results are given in words; binding and its absence hold for the method and conditions named. Some entries that bind do so weakly or less than the wild type. Where a sequence is shown, tags or fusion partners need not be part of it.
Experiments:
Assay in all cases: tandem affinity purification
[1] = molecular target: T1, TAP-tagged Ioc4 aromatic cage mutant [change], in yeast (S. cerevisiae) (UniProt Q04213)
T1 sequence: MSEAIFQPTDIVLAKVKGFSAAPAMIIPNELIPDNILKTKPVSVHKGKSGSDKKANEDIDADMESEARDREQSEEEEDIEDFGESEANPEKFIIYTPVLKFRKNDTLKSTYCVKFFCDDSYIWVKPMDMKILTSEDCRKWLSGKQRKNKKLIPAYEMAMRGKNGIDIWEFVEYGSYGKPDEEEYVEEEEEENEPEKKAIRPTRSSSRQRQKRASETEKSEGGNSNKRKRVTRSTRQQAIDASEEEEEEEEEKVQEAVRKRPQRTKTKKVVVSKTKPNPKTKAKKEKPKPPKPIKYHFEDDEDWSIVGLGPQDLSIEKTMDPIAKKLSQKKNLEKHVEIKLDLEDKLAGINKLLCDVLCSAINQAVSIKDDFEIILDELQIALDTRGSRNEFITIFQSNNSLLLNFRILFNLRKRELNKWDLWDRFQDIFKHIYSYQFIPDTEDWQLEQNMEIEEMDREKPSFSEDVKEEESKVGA

[2] = molecular target: T2, TAP-tagged Ioc4 with the insertion motif deleted, in yeast (S. cerevisiae) (UniProt Q04213)
T2 sequence: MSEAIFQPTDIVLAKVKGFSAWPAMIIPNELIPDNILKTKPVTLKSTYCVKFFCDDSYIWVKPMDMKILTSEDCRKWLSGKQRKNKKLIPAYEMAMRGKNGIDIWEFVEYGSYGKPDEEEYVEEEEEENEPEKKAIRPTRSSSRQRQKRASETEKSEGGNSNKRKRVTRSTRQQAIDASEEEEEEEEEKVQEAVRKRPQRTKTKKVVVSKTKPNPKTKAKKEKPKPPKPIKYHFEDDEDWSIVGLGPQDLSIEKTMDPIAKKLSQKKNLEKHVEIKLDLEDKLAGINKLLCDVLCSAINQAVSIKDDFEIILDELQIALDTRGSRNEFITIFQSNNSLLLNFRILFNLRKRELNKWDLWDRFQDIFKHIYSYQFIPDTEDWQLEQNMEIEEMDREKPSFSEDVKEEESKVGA

[3] = molecular target: T3, TAP-tagged wildtype Ioc4 in yeast (S. cerevisiae) (UniProt Q04213)
T3 sequence: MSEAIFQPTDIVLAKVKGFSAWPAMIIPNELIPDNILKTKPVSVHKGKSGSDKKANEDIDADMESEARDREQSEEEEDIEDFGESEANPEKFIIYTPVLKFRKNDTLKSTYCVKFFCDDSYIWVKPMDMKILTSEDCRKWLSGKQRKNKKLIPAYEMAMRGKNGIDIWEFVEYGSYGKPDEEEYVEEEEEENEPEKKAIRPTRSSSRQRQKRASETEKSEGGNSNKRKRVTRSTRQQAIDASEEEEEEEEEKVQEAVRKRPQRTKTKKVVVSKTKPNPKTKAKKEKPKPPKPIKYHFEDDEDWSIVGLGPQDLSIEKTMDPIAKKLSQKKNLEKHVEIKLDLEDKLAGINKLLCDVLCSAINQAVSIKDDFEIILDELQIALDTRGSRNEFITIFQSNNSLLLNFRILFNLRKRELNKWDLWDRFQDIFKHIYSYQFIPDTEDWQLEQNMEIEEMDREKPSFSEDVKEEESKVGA

[4] = molecular target: T4, TAP-tagged Ioc4 with its PWWP domain deleted, in yeast (S. cerevisiae) (UniProt Q04213)
T4 sequence: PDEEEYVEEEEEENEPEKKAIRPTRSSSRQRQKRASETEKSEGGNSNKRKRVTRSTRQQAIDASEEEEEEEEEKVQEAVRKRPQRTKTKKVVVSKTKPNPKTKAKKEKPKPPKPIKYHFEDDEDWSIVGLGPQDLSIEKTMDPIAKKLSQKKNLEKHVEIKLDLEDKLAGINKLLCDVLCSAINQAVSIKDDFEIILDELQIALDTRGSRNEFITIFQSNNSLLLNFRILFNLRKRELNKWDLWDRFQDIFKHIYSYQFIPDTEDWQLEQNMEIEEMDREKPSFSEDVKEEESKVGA

[5] = molecular target: T5, TAP-tagged Ioc4 DNA-binding mutant [change] [change], in yeast (S. cerevisiae) (UniProt Q04213)
T5 sequence: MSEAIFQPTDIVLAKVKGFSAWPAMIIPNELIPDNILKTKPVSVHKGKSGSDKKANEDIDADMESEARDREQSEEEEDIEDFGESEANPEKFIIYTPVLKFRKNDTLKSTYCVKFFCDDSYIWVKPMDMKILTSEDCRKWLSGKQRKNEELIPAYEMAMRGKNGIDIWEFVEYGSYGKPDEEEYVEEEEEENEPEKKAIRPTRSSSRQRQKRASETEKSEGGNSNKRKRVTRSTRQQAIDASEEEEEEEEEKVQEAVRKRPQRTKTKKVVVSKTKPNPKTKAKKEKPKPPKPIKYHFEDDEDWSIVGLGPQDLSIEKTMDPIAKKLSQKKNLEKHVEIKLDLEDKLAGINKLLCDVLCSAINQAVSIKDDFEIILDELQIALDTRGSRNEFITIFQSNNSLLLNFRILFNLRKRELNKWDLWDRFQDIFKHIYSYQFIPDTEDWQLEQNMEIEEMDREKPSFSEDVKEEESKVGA

- binding [1]: binds
- binding [2]: binds
- binding [3]: binds
- binding [4]: binds
- binding [5]: binds
B1: Ioc2 (protein, UniProt Q12072 1-812)
chain: MRTKRTRGTRNVGASMPAGAANADSEDWKEYVSEDIIAQLNKHQLPYSEILDEKIADLANHWHFQYVMAWLSNVCESYTTTTFNTDQYGGSSTKCLWKNIKFDEGVFVTDVFSKIDGKDSNYYNDEVDVDEGSQNLYDRIRLQLLHQLAGNKSGQLKDWNVIVNHHLQNSSAYSDLVTDLPFLELEIARQFDIIYSIIKLIEMKNMIFKNYLANNLHLFTFSEVILDDDNSGGEEMKSLFALPNVGVLVKKTIHRVKEGSSSQVSQTLNIPIKLQNCTIKESDPDIPDSVELIHLEYSHDIDAYLQSITIDYDVITTNWGSMLEYWSENKSSKAIDEFITNLIPVYAEHRLYSAKLLANREKERAIAELMTRRKRSSRLVAKEEENKKKDLESEWFEKLDEREQFIRHRNKLVSKEIKKIKDLLWNQLWQLYDQDYRDEKLTRRNELKDRSGSGTPFFETSLGREEDNPLNEIDIGVLDHGPNFQSSIIPVEPPIPGTVGPLQTGDVPELPSDFCITKEELDELANYGIFTPQQEPDNQDSVFQCPGEPELAPMIITEDTETDLFNNRPLICCDHCYRWQHWECQPPKIIELISSTTKSPQHTLSQRDFGVIIMGNSHGNRRSSRRPQSTLEPSTKSSRPTDKRKPLSECSTFICAWCIRDLELELRNIFVPELKIIRAKQRKQQEDRERRKKMKEEKKRLEELAKKRELTESVSPPVFNNAFANMSSSTTPSIAAYEKTNPAINPAPNVNAAHPIITYSQQTGSKTVPQAPQAPQTSQASIQPQQQQQQQQQQQPLHPKEQNFHFQFPPTN

Reference: publication doi:10.1101/2021.02.26.432832
